Results from article PMC10438374.
These are yes or no findings as the source states them, for the method shown. Some entries that bind do so weakly or less than the wild type.

The chains behind the UniProt entries cited, without tags or fusion partners. Where a name states a change or a piece, a line headed by the entry shows the natural chain unless it says otherwise.
UniProt P40692: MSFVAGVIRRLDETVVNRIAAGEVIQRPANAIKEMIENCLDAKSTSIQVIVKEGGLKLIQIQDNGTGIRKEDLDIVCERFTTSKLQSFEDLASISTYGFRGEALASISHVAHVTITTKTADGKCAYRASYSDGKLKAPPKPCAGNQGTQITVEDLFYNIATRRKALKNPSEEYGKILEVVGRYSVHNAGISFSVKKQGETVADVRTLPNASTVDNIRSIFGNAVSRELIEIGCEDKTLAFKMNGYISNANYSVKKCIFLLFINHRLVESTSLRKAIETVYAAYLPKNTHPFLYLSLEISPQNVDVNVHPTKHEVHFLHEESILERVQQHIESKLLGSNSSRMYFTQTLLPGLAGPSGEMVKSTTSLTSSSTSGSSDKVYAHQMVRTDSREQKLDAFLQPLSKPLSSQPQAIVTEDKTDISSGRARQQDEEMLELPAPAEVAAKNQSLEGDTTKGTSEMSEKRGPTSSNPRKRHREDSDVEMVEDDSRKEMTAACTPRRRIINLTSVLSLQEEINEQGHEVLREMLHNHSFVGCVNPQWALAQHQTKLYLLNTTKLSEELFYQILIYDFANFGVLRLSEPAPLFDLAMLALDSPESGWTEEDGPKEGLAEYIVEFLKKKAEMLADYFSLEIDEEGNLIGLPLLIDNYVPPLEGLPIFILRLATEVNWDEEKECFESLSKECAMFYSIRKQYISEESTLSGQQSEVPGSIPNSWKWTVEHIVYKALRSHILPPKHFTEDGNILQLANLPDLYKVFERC
UniProt P54278: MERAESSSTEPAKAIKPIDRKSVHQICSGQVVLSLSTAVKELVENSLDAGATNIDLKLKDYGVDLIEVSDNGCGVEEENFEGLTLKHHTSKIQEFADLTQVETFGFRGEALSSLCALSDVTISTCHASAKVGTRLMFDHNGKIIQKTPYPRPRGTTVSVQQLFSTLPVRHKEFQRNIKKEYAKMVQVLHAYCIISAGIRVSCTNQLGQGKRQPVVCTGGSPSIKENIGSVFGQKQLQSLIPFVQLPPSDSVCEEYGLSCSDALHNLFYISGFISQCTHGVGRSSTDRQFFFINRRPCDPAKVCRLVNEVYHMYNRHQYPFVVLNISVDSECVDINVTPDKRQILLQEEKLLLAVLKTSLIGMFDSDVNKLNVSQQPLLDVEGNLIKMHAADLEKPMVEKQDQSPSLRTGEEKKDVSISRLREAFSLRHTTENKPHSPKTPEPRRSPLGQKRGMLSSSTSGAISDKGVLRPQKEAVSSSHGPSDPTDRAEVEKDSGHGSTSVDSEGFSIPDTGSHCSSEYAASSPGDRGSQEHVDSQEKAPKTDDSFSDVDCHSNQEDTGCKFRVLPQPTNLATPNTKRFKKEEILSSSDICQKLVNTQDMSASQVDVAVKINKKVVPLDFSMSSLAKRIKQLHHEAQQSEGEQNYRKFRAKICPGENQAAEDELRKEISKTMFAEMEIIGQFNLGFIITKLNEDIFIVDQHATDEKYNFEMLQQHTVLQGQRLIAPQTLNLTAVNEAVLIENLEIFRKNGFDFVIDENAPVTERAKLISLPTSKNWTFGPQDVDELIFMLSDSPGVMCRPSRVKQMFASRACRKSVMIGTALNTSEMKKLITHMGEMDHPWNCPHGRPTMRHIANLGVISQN
UniProt P12004: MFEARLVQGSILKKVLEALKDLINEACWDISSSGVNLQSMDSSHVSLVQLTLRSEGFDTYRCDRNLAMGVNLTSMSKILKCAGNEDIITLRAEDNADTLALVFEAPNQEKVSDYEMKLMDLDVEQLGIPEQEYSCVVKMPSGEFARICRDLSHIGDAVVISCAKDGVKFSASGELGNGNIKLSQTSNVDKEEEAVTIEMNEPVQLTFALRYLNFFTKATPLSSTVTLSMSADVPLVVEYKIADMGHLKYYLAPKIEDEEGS

Target: MutLα (MLH1/PMS2 heterodimer), recombinant human (human) (UniProt P40692+P54278)
Test: far-Western, overlay or dot blot; indicated proteins spotted onto nitrocellulose membrane and incubated with 0.36 µM PCNA overnight; PCNA detected immunochemically; both purified

binding: binds
Substance: PCNA (proliferating cell nuclear antigen) (from UniProt P12004 1-261)
